Results from patent US20230212239A1, “INHIBITORS OF CBL AUTOINHIBITION AND RELATED METHODS” (THE HOSPITAL FOR SICK CHILDREN, priority 2020, published 2023).
Changes are numbered by the printed parent chain. Numbers in names are those of the source. These are yes or no findings as the source states them, for the method shown. Binding seen in cells or lysates may run through a third protein. Some results given as binding are weak or reduced against the parent protein; the word gives no strength. Sequences can lack the tags named with a protein.

B1: Trx-His(6)-Δlinker-hSLAP2 I249W (protein, not shown: large carriers; small tags and cut ends)
chain: EAERSKATAVALGSFPAGGPAELSLRLGEPLTIVSEDGDWWTVLSEVSGREYNIPSVHVAKVSHGWLYEGLSREKAEELLLLPGNPGGAFLIRESQTRRGSYSLSVRLSRPASWDRIRHYRIHCLDNGWLYISPRLTFPSLQALVDHYSELADDICCLLKEPCVLQRAGPLPGKDIPLPVTVQRTPLNWKELDSSLLFSEAATGEESLLSEGLRESLSFYWSLNDEAVSLDDA
B2: Trx-His(6)-Δlinker-hSLAP2 S246/250E (protein, not shown: large carriers; small tags and cut ends)
chain: B1 chain with S218E, W221I, S222E
B3: Trx-His(6)-Δlinker-hSLAP2 (human SLAP2 29-261) (protein, not shown: large carriers; small tags and cut ends)
chain: B1 chain with W221I
B4: Trx-His(6)-mSLAP (mouse SLAP 19-254) (protein, UniProt Q60898 19-254, looked up, not shown: large carriers)
chain: SEGLESDFLAVLTDYPSPDISPPIFRRGEKLRVISDEGGWWKAISLSTGRESYIPGICVARVYHGWLFEGLGRDKAEELLQLPDTKIGSFMIRESETKKGFYSLSVRHRQVKHYRIFRLPNNWYYISPRLTFQCLEDLVTHYSEVADGLCCVLTTPCLAQNIPAPTSHPSPCTSPGSPVTLRQKTFDWKRVSRLQEGSEGAENPLRVDESLFSYGLRESIASYLSLTGDDSSSFDR
B5: Trx-His(6)-Δlinker-hSLAP2 R242A (protein, not shown: large carriers; small tags and cut ends)
chain: B1 chain with R214A, W221I

Assays:
[1] = target: CBL (47-357), co-expressed from pETDuet-1 MCS2 (UniProt P22681); test: Ni-NTA co-purification, low salt (refers back to FIG. 5E)
[2] = target: CBL (47-357), co-expressed from pETDuet-1 MCS2 (UniProt P22681); test: Ni-NTA co-purification, low salt, Coomassie SDS-PAGE (FIG. 5E)
[3] = target: CBL (47-357), co-expressed from pETDuet-1 MCS2 (UniProt P22681); test: Ni-NTA co-purification, low salt, Coomassie SDS-PAGE (FIG. 1B)
[4] = target: CBL (47-357), co-expressed from pETDuet-1 MCS2 (UniProt P22681); test: Ni-NTA co-purification from Duet co-expression, high salt, Coomassie SDS-PAGE
[5] = target: CBL (47-357), co-expressed from pETDuet-1 MCS2 (UniProt P22681); test: Ni-NTA co-purification from Duet-His-mSLAP-CBL, low salt, Coomassie SDS-PAGE (FIG. 5F)

binding [1]	binding [2]	binding [3]	binding [4]	binding [5]	Binder
binds	binds				B1
binds	binds				B2
		binds	binds		B3
				binds	B4
binds	binds				B5
